Library screen at single concentrations

Amino acid sequences for entries named in this document (tags omitted). Residues count along the entry.
UniProt A4I591, 1-473: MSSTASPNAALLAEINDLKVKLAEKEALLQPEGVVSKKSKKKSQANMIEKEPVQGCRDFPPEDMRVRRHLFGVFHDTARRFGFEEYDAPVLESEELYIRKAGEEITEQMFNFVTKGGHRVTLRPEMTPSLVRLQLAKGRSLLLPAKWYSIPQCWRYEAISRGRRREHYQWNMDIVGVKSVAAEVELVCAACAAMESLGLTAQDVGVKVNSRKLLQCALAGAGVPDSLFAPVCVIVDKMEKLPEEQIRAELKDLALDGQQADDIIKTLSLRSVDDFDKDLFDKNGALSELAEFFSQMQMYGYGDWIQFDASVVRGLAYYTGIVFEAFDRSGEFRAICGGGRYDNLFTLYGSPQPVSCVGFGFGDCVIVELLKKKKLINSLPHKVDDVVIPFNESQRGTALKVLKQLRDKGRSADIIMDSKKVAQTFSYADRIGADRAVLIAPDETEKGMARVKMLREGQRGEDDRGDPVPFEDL
UniProt I6X8D2, whole entry: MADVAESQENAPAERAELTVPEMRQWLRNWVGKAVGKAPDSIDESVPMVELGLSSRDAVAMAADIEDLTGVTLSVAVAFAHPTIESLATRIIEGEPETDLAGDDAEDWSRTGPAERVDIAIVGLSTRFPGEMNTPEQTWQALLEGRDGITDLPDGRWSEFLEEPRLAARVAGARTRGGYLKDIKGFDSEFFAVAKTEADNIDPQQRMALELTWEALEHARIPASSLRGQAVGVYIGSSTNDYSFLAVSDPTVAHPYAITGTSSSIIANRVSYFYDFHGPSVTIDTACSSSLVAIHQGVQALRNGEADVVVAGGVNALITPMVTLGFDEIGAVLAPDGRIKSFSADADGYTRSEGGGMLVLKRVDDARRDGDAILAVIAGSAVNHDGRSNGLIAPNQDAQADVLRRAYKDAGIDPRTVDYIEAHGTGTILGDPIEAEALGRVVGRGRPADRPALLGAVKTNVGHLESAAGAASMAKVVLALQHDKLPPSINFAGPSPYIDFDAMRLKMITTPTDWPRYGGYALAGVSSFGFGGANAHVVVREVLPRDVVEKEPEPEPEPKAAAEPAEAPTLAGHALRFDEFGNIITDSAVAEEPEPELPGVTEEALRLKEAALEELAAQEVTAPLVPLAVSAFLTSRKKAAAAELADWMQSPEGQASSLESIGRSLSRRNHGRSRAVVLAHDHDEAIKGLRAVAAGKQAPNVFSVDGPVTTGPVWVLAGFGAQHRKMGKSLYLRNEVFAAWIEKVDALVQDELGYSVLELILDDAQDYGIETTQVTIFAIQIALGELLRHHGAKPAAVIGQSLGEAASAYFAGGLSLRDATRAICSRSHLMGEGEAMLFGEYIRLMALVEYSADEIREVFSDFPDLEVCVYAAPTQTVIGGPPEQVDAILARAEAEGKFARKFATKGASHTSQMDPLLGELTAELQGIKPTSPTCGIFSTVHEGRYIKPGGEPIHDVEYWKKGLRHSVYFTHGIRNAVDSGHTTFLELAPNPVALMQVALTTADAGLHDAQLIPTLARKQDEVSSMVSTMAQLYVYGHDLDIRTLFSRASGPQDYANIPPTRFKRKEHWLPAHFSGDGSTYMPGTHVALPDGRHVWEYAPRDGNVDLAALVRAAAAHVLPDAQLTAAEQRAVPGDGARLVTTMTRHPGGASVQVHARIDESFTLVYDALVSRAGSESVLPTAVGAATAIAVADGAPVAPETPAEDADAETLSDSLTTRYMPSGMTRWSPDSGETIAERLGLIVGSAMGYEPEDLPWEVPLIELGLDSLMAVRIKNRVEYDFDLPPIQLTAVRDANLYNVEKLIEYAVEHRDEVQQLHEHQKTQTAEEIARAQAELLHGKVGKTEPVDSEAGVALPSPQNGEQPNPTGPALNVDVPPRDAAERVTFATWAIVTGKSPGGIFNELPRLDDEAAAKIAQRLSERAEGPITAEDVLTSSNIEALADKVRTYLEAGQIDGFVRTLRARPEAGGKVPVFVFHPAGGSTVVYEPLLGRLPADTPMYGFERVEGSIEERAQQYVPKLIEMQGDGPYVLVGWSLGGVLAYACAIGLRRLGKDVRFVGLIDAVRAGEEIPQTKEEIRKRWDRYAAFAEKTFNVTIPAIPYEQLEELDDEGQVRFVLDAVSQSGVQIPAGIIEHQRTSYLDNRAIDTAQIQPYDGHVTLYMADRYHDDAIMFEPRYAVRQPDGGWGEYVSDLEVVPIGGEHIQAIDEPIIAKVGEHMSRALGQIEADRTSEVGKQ

Data taken from ChEMBL document CHEMBL3988442, “University of Dundee, Small-Polar-MMV Screening Library” (2021).

Results are given as percent effect.
The record does not define 0% and 100%; most values in the screen are far below 50% and negative numbers occur (in some assays of this library far below -100).
This is an unselected part of the compounds tested.
A dash means the value is not listed here; it may have been measured.

A: 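Histidine-tRNA ligase, Leishmania infantum (UniProt A4I591). Enzyme assay of histidyl-tRNA synthetase; the read-out is not stated. Compounds at 30 µM. Higher reads as stronger inhibition (inferred: compounds with an IC50 in retests scored well above the rest). The assay is labelled LdHisRS but filed under L. infantum. About 69,000 compounds were tested under these conditions; 0.6% (about 410) showed 50% or more at least once.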
B: 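Polyketide synthase Pks13, Mycobacterium tuberculosis (UniProt I6X8D2). Enzyme assay of the thioesterase domain of polyketide synthase 13; the read-out is not stated. Concentration: 30 µM. The record gives no direction; the compounds picked for IC50 retests had high values, so higher reads as stronger inhibition. Size under these conditions: about 67,000 compounds, about 300 of them at 50% or above in at least one test.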
C: 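Cell assay of Leishmania donovani living inside macrophages; the read-out is not stated. Concentration: 30 µM. The record gives no direction; compounds that gave an IC50 in retests scored well above the rest, so higher reads as stronger inhibition. Size under these conditions: about 69,000 compounds, about 1,000 of them at 50% or above in at least one test.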

{"structure": "Cn1cnc2c1CCN(Cc1nc(-c3ccco3)no1)C2", "A": 1.587, "B": -27.11, "C": 1.385}
{"structure": "O=c1[nH]c2ncccc2n1C1CCNCC1", "A": -10.42, "B": -11.97}
{"structure": "O=C(c1ccc(NC2CC2)nc1)N1CCC(Nc2cccnn2)CC1", "A": 15.04, "B": -14.37, "C": 1.553}
{"structure": "CC(C)CC(=O)N1CC[C@H]2N(C)CC[C@@]2(C(=O)Nc2ccccc2)CC1", "A": 15.38, "B": 32.96}
{"structure": "CSc1nsc(SCC(=O)c2cc3c(cc2Cl)NC(=O)C3)n1", "A": 13.16, "B": 24.03, "C": 14.27}
{"structure": "Cn1cc(-c2cc(C(F)(F)F)nn2CCC#N)cn1", "A": 8.642, "B": 3.159, "C": -0.6212}
{"structure": "O=C(c1ccccn1)N1C[C@@H]2CC[C@H](C1)N(C(=O)CCN1CCCC1)C2", "A": -2.4}
{"structure": "CCC[C@H]1CN(Cc2nccn2C)C[C@@H]1NC(=O)C1(COC)CCC1", "A": 11.43, "B": -37.26, "C": 23.6}
{"structure": "Cc1nccn1[C@@H]1CC[C@@H](NC(=O)Cn2c(C)nc3ccccc32)[C@H]1O", "A": 5.369, "B": 0.2403, "C": -17.08}
{"structure": "Cc1cc(C)n(CCC(=O)N2CCCCC2c2nccs2)n1", "stereo": "centres unmarked", "A": -6.522, "B": -25.3, "C": 20.96}
{"structure": "COc1cccc(CCNS(=O)(=O)c2ccc(NC(C)=O)cc2)c1", "A": 20, "B": -20.89, "C": -10.28}
{"structure": "OC1(CN2CCCC2)COCCN(c2ncnc3[nH]ccc23)C1", "stereo": "centres unmarked", "A": 1.333, "B": -28.63, "C": 12.33}
{"structure": "Cn1c(CS(=O)(=O)Cc2cccc(Cl)c2)cc(=O)n(C)c1=O", "A": 15, "B": -23.41, "C": 21.65}
{"structure": "[H][C@@]12CN(C(=O)c3ccoc3)C[C@]1([H])CN(c1ncccn1)C2", "C": 16.51}
{"structure": "Cc1cnn(C2CN(C(C)c3nc(-c4ccccc4)no3)C2)c1", "stereo": "centres unmarked", "A": -25, "B": -11.69, "C": 9.777}
{"structure": "CCC(C)N1CCc2c(C(=O)N3CCOCC3)n[nH]c2C1", "stereo": "centres unmarked", "A": 3.883, "B": -30.24, "C": -1.021}
{"structure": "CN(C)C(=O)CN1CCC2(CC1)COc1ccccc1S(=O)(=O)N(C)C2", "A": 15.28, "B": -10.5}
{"structure": "CN(Cc1cc2n(n1)CCN(C(=O)[C@H]1CCCO1)C2)Cc1nccs1", "A": 11.19, "B": 7.182, "C": -1.955}
{"structure": "COC(=O)CCN(CC1CCCO1)C(=O)CCc1ccc(OC)cc1", "stereo": "centres unmarked", "A": -3.333, "C": -18.21}
{"structure": "Cc1cc(C)n(CC2CN(CC(=O)Nc3ccncc3)CCO2)n1", "stereo": "centres unmarked", "A": 15.65, "B": 0.5351, "C": 13.89}
{"structure": "O=C(O)C(F)(F)F.O=C(O)C(F)(F)F.[H][C@@]12CN(Cc3nccs3)C[C@]1([H])OCCN2c1ccc(C)nn1", "C": 22.42}
{"structure": "Cc1ccc2c(n1)N(CCN(C)C)CCN(Cc1c(C)noc1C)C2", "A": 12.82, "B": -36.99}
{"structure": "COc1ncc(CN(CCCN2CCOCC2)Cc2ccc(C)o2)cn1", "A": 10.34, "B": 36.8}
{"structure": "Cc1ccc(CN2CCCn3nnc(COCC4CC4)c3C2)s1.O=C(O)C(F)(F)F", "C": 16.69}
{"structure": "Cc1noc(CN2CCN(CCS(C)(=O)=O)CC2)n1", "A": 13.11, "B": -16.49, "C": 12.67}
{"structure": "Cc1noc(Cl)c1CC(=O)NCCOc1ccc(F)cc1F", "A": 28.36, "B": -13.42, "C": 8.93}

Repeated from the top, 3 entries:

| structure | A | B | C |
|---|---|---|---|
| `Cn1cnc2c1CCN(Cc1nc(-c3ccco3)no1)C2` | 1.587% | -27.11% | 1.385% |
| `O=c1[nH]c2ncccc2n1C1CCNCC1` | -10.42% | -11.97% | - |
| `O=C(c1ccc(NC2CC2)nc1)N1CCC(Nc2cccnn2)CC1` | 15.04% | -14.37% | 1.553% |